The text below walks through data of patent US20100311660A1.

Chains of the proteins cited; added tags and fusions are not shown. Residues count along the entry.
UniProt P16860, residues 103-134: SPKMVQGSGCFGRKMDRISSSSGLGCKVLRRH

No constants are given. Whether binding was seen depends on the method and setting. Some binding calls cover weakened binding; strength is not graded here.

This experiment concerns the target T1, human NPR-C (human) (UniProt P17342).
T1 sequence (looked up): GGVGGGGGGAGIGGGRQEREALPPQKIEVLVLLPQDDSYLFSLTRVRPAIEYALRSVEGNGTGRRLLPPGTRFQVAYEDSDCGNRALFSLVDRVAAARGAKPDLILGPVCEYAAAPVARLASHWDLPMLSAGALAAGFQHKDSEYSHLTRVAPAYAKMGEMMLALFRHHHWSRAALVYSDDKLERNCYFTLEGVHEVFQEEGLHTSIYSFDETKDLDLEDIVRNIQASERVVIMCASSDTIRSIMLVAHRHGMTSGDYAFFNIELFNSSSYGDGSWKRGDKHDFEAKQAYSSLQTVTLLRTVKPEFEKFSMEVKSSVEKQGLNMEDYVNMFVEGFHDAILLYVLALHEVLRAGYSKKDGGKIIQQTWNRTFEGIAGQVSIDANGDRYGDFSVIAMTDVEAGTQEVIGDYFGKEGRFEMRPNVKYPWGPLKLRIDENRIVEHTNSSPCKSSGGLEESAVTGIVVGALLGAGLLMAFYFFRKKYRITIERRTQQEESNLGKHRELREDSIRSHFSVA
Briefly: receptor binding assay, methods similar to Fan et al. 2005.

As for “human BNP (from UniProt P16860 103-134) (peptide)”, the binding entry was “binds”.
